The values below come from publication PMC7948418, “Genetic and biased agonist-mediated reductions in β-arrestin recruitment prolong cAMP signaling at glucagon family receptors” (The Journal of Biological Chemistry, 2020).

The chains behind the UniProt entries cited, without tags or fusion partners. Residues count along the entry.
UniProt P47871, residues 26-477: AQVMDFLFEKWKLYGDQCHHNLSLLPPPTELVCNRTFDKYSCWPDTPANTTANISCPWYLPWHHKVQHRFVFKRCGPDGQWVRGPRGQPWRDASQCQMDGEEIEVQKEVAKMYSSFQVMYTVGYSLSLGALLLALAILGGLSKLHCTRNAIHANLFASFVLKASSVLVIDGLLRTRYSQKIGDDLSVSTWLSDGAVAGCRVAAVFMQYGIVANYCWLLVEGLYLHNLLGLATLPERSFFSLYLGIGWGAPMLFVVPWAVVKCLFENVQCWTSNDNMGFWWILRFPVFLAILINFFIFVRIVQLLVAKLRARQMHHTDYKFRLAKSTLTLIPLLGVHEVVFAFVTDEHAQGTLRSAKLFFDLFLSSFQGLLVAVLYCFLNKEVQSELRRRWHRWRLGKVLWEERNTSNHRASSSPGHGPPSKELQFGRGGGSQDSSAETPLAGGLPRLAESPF
UniProt P43220, residues 24-463: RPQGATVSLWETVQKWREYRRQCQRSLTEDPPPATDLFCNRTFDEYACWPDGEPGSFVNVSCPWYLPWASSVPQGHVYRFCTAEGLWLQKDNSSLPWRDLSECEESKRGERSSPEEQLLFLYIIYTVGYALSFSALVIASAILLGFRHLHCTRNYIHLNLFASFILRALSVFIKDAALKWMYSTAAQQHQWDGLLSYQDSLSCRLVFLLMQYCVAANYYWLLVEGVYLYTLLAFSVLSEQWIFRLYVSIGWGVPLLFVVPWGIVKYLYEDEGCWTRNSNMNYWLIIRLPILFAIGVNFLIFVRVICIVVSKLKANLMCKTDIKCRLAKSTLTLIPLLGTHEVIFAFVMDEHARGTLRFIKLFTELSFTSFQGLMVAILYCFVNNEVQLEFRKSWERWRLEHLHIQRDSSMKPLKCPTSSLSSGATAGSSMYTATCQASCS
UniProt P32121: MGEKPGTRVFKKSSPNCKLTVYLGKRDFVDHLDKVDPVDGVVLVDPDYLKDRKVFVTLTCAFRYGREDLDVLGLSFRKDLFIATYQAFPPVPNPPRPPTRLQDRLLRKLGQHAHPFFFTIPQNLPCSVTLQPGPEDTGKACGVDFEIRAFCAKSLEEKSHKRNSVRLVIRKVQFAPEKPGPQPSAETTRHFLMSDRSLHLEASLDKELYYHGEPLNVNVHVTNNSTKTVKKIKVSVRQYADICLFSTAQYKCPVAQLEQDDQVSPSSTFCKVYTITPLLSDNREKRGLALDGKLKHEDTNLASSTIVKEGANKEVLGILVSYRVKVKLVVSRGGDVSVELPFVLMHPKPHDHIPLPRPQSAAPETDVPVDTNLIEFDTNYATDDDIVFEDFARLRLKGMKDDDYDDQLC

These are yes or no findings as the source states them, for the method shown. In cells and extracts the contact can be indirect. Some results given as binding are weak or reduced against the parent protein; the word gives no strength.

The target in assay [1] is GCGR-SmBiT (UniProt P47871). The assay can be described thus: split reporter; NanoBiT complementation in HEK293T cells co-transfected with receptor-SmBiT and LgBiT-tagged effector; furimazine; 37 °C; baseline 5 min, then 100 nM cognate agonist (GLP-1, GIP or GCG) or vehicle, luminescence over 30 min, normalised to baseline and vehicle.
The target in assay [2] is GLP-1R-SmBiT (UniProt P43220). The description is as above.

“LgBiT-β-arrestin-2 (from UniProt P32121 1-409)”: the binding entry in assay [1] and in assay [2] was “binds” in each case.
